# From PubChem BioAssay AID330 (DTP/NCI, 2004)
# The list does not hold the whole screen: it is rich in T/C values a quarter to a half above the control, in often repeated tests (any T/C) and in doses without a T/C. Other doses and runs of a compound stand elsewhere. T/C gives the treated animals as a percentage of the vehicle group. Some entries give survivors of the animals treated and no T/C: the source files T/C as zero there, which appears to mark a toxic dose or a test without result, not a measured value. Some survivor counts are full or nearly so, which does not show that the dose was tolerated: survival well below the control is almost never listed, so the zero probably covers shortened survival too. Survivors were counted at the toxicity check, usually on the fifth day, unless a day is given; later deaths do not show. Schedules are NCI's codes, read here as Q, the interval in days (D) or hours (H), X, the number of doses. Some entries were tested several times; the results are listed from low to high. Where survival is the endpoint, this PubChem deposit counts one and a half times the control or more as active, and values a quarter to a half above the control carry no call in these data; other NCI protocols may use other cut-offs.
# Test system: P388 leukemia ip, CD2F1 mice, survival T/C
# Experiment: NCI In Vivo Anticancer Drug Screen. Data for tumor model P388 Leukemia (intraperitoneal) in CD2F1 (CDF1) mice
# Conditions: T/C endpoint: median survival time, higher T/C = longer survival
# [1] = dose: 120.0 mg/kg/injection, schedule: Q01DX005 (ip), vehicle: Klucel (hydroxypropylcellulose) (HPC)
# [2] = dose: 240.0 mg/kg/injection, schedule: Q01DX005 (ip), vehicle: Klucel (hydroxypropylcellulose) (HPC)
# [3] = dose: 100.0 mg/kg/injection, schedule: Q01DX009 (ip), vehicle: saline with Tween-80
# [4] = dose: 200.0 mg/kg/injection, schedule: Q01DX009 (ip), vehicle: saline with Tween-80
# [5] = dose: 100.0 mg/kg/injection, schedule: Q01DX005 (ip), vehicle: Klucel (hydroxypropylcellulose) (HPC)
# [6] = dose: 200.0 mg/kg/injection, schedule: Q01DX005 (ip), vehicle: Klucel (hydroxypropylcellulose) (HPC)
smiles,measurement,setting,value
Cc1cc[n+](CCc2c[nH]c3ccccc23)cc1C,survivor count,"dose: 100.0 mg/kg/injection, schedule: Q01DX005 (ip), vehicle: saline",0 of 5
same,survivor count,"dose: 200.0 mg/kg/injection, schedule: Q01DX005 (ip), vehicle: saline",0 of 5
Nc1c(-c2ncc[nH]2)[nH]c2cc(-c3ncc[nH]3)ccc12,survivor count,[1],0 of 6
same,survivor count,[2],0 of 6
CC1OC(=O)C(=O)/C1=C1/CC(C)(C)N(c2ccccc2)N1 (configuration not stated),T/C,[3],131 % of control
same,survivor count,[4],6 of 6
Nc1nc(N)c(N2CCN(Cc3ccccc3)CC2)c(Cl)n1,survivor count,[1],6 of 6
same,survivor count,[2],3 of 6
Cc1ccc(S(=O)(=O)N2CCCN(S(=O)(=O)c3ccc(C)cc3)CCSCCCSCC2)cc1,survivor count,[3],6 of 6
same,survivor count,[4],6 of 6
CNC(=O)OCC1=C(COC(=O)NC)C(=O)c2ccccc2C1=O,survivor count,"dose: 50.0 mg/kg/injection, schedule: Q01DX005 (ip), vehicle: Klucel (hydroxypropylcellulose) (HPC)",0 of 6
same,survivor count,[5],0 of 6
same,survivor count,[6],0 of 6
O=P(c1ccccc1)(N1CC1)N1CC1,survivor count,"dose: 60.0 mg/kg/injection, schedule: Q04DX003 (ip), vehicle: saline",6 of 6
CO/N=C(\N)NC(=O)Cc1c(Cl)cccc1Cl,survivor count,[5],5 of 6
same,survivor count,[6],1 of 6
NN1C(=O)CS/C1=N\C(=S)N/N=C1/SCC(=O)N1N,survivor count,"dose: 0.19 mg/kg/injection, schedule: Q01DX009 (ip), vehicle: saline",5 of 6
same,survivor count,"dose: 0.39 mg/kg/injection, schedule: Q01DX009 (ip), vehicle: saline",5 of 6 and 6 of 6
same,survivor count,"dose: 0.78 mg/kg/injection, schedule: Q01DX009 (ip), vehicle: saline",6 of 6
same,survivor count,"dose: 1.56 mg/kg/injection, schedule: Q01DX009 (ip), vehicle: saline",6 of 6
same,survivor count,"dose: 3.12 mg/kg/injection, schedule: Q01DX009 (ip), vehicle: saline",0 of 6
same,survivor count,"dose: 6.25 mg/kg/injection, schedule: Q01DX009 (ip), vehicle: saline",0 of 6
same,survivor count,"dose: 12.5 mg/kg/injection, schedule: Q01DX009 (ip), vehicle: saline",0 of 6
same,survivor count,"dose: 25.0 mg/kg/injection, schedule: Q01DX009 (ip), vehicle: saline",0 of 6
same,survivor count,"dose: 50.0 mg/kg/injection, schedule: Q01DX009 (ip), vehicle: saline",0 of 6
same,survivor count,"dose: 100.0 mg/kg/injection, schedule: Q01DX009 (ip), vehicle: saline",0 of 6
same,survivor count,"dose: 200.0 mg/kg/injection, schedule: Q01DX009 (ip), vehicle: saline",0 of 6
Cc1cc(N/N=C/c2ccc(N(CCCl)CCCl)cc2)c2cc3c(cc2n1)OCO3,survivor count,"dose: 100.0 mg/kg/injection, schedule: Q04DX003 (ip), vehicle: saline with Tween-80",4 of 5 and 6 of 6
same,survivor count,"dose: 200.0 mg/kg/injection, schedule: Q04DX003 (ip), vehicle: saline with Tween-80",3 of 6
same,survivor count,"dose: 400.0 mg/kg/injection, schedule: Q04DX003 (ip), vehicle: saline with Tween-80",0 of 5
O=C1NC(CN2CCCC(O)C2)C(=O)NC1CN1CCCC(O)C1 (configuration not stated),survivor count,"dose: 200.0 mg/kg/injection, schedule: Q01DX009 (ip), vehicle: water",5 of 5
Cn1cnc([N+](=O)[O-])c1[Se]c1nc(N)nc2c1ncn2C1OC(CO)C(O)C1O (configuration not stated),T/C,"dose: 4.0 mg/kg/injection, schedule: Q01DX009 (ip), vehicle: water",126 % of control
same,T/C,"dose: 8.0 mg/kg/injection, schedule: Q01DX009 (ip), vehicle: distilled water + Tween-80",134 % of control
same,T/C,"dose: 8.0 mg/kg/injection, schedule: Q01DX009 (ip), vehicle: water",130 % of control
same,T/C,"dose: 16.0 mg/kg/injection, schedule: Q01DX009 (ip), vehicle: distilled water + Tween-80",142 % of control
same,T/C,"dose: 16.0 mg/kg/injection, schedule: Q01DX009 (ip), vehicle: water",142 % of control
same,survivor count,"dose: 128.0 mg/kg/injection, schedule: Q01DX009 (ip), vehicle: water",3 of 6
